Screen size: about 52,000 sequences; about 210 (0.4%) were called active.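 Rule for the calls: active = gene whose silencing raises cell survival under the drug, median off-target-corrected z-score across its silencing RNAs 2 or more; inactive = the rest.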 This is one part of the list.

Drawing on PubChem BioAssay AID1347423 (Functional Genomics Laboratory (NCATS/FGL), 2020), this text covers z-score for 66 sequences.

A short description of this assay: Resistance to Poly (ADP-Ribose) Polymerase inhibitor: Gene Identification via Genome-wide siRNA Screen. As to conditions: mouse BRCA2 R2336H ES cells, olaparib, CellTiter-Glo viability; stronger effect = higher value. The gist of the method:
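Mouse BRCA2 R2336H ES cells were reverse-transfected with siRNA (20 nM final), treated at 48 h with 500 nM olaparib, and read by CellTiter-Glo after 72 h. Scores: MAD-based z per siRNA, median per gene, seed off-target correction.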
Regarding “GGUCAAGUCAUCAGAAAUGTT against 4632417N05Rik”, the z-score is inactive: 0.787. The value for GUACUAGCUAAUUGGGCCATT against Speer4b was inactive: -0.0527; that for “GGUGAAAACCCUAACAGUCTT against A130007F10Rik” was inactive: 0.653; that for GGGAAACAGCAAAAUGAAATT against Bcas1 was inactive: 0.465. Next, GGAAUAGCAUAAACACAGUTT against Epm2aip1: inactive: 1.37; GCAGUAUGCACACCUGGAGTT against BC002230: inactive: 0.318; “GCUACAUGGGCCUCACAUATT against 1700008E09Rik”: inactive: -1.12. As for GCUAUCGGCGUGAGUAACCTT against Gk2, the z-score was inactive: 1.17. GGAAAAAAUCAAGAACAUCTT against Tmc2: the z-score is inactive: 0.101. Next, GGAGAAGUUCAAAGUGAGGTT against B3gnt3: inactive: 0.554; “GGACAAAAACAAACAUGAGTT against E030013G06Rik”: inactive: 0.548. The value for CCUAUGCUUUUUUGUAAGATT against Il13ra2 was inactive: 0.29; that for “GGAAAGACACAAGUGGAAATT against 5330421F07Rik” was inactive: 1.54; that for GGUCUUCAUACCUGUUCUATT against Zik1 was inactive: 0.218. The value for CCAAGAUAGUCCCUAUCCCTT against Scamp3 was inactive: 0.00183.

For GGAAAUUGUUUGAGAGGUATT against Edn3, the z-score is inactive: -0.925. The value for GCGAGUUGCUCUACGUCAUTT against Rfrp was inactive: 1.19. Turning to CCACAUGUUCAGUUCUAAATT against Ddhd1, the z-score was inactive: 0.875.

GGUUUUGAGCCUCAAAAAATT against Col6a2: the z-score is inactive: -0.6. The value for GGAAUAGAAGCACUGUGUGTT against Brs3 was inactive: -1.37; that for GGAAGAGAUAAUGAACUUCTT against Dspp was inactive: 0.814; that for GGAAAGUUGAUUCUUGUGUTT against Bmpr1a was inactive: 0.227. The value for “GCUUGUUCAGGAAAUGAAATT against C630016B22Rik” was inactive: -0.39. The value for “GGCAGAUGAUCCCGGGAUUTT against 4933402J24Rik” was inactive: -2.24; that for GACUAGAACAACAGAAAGUTT against Vax2 was inactive: 1.24; that for “GCAGCGGAGGGUCAAAGAATT against A030010B05Rik” was inactive: -1.1. As for GGGCCAAUUCAACUUUGAUTT against Umpk, the z-score is inactive: -0.682.

For the sequence GGAUAAACGGGACAAAGCATT against Hcls1, the z-score was inactive: 0.746. Next, CCUGAUUCUUGUCAAAAACTT against MGC92959: inactive: 0.235; GGCAAAGUAGAAGCUAAACTT against Pycrl: inactive: 1.88; CCUUUUUCAUUGGCUGCCCTT against Psors1c2: inactive: -0.895.

In the case of “GGAUCUGCUGAAUAAGUGCTT against 1500011H22Rik”, the z-score is inactive: -1.37. The value for “GGCAGAAAUGAAAACACUUTT against 2610524G09Rik” was inactive: -0.553. The value for CCGGCAUUUACCAUAAUAATT against Mcm2 was inactive: -2.17; that for GGUUGCAUUGGGAACUUUCTT against Kai1 was inactive: -1.21; that for GCGAACAACAAUGCUUAAATT against Mga was inactive: 0.92.

As to CGGACUUGUUUUUUAGUCUTT against Zfp469, the z-score is inactive: -0.127. Regarding GGCCUUGUAGGAAGCAUUGTT against Slc37a4, the z-score was inactive: -0.0475.

Consider GGUGUAUGUCACCCUGACCTT against Sag, for which the z-score was inactive: 0.889.

On to GGAGGACCAAGAGGACAUUTT against Tbl3, for which the z-score was inactive: -2.19. The value for “GCCAGUGGAUGUUCAGAAUTT against 4931417A20” was inactive: 0.611. Next, GGCAGUUUGAGAUUGUGUCTT against Thbs2: inactive: -0.244; GGAAUUAACAGAGAAGAAATT against Rgs13: inactive: 0.323; GGAGCUGGAUUCAUUGACGTT against Chi3l4: inactive: 0.804.

For the sequence GGUGGAGACACUGAAGGUUTT against Akap1, the z-score was inactive: -2.34.

Consider GGGAAAUUGGUGCUACAUGTT against Eln, for which the z-score is inactive: 0.281. The value for GGGACGACCAUAUUUAUUUTT against Psma2 was inactive: -1.94. On to GGGUCAUUGAUAUCUUAAGTT against Bcl3, for which the z-score was inactive: -1.36.

In the case of GCUCAAACAGAUACACGGATT against Ap2a2, the z-score is inactive: 0.288.

“GGAUGACAAGGUUAAGCUATT against D130060C09Rik”: the z-score was inactive: 0.214. Next, “GGUACGCUCCAGGAAUAUCTT against 2400003N08Rik”: inactive: -2.21; GGACUUCCUAAGCAACUCATT against Mycs: inactive: -0.994; GGAAACCAACUUCAGCCUGTT against Gfra1: inactive: -0.491. CCUUCCACAAAUACUCAGGTT against S100a4: the z-score is inactive: 0.151. Next, “GGCUGCAAGGACAAGAGAATT against 1600002K03Rik”: inactive: -1.51; CCAGUUUAUCACAUAACCUTT against Wasl: inactive: 0.101. Next, GCUGUCUCAAUCACCCUAATT against Olfr1427: inactive: -0.472; CCAAAGUAUGCACUUUACATT against AA959934: inactive: -0.799. Next, “GUCAAAUGGAGCAGAGCCATT against 1700009B20Rik”: inactive: -1.27; GCCGUCUUGUGUGUAUCAATT against Olfr1342: inactive: 0.00416; GCUGAAAUCAGAAGCUAACTT against Casc3: inactive: 0.845. As to GGGAGAUGUUUGUUUUCAATT against Mmp16, the z-score was inactive: 0.314.

Take CGGCAGAUACUGAUACUGCTT against Actn1: the z-score was inactive: 1.4.

Turning to UUCACUUUUUCACUGGAAUTT against Olfr1228, the z-score was inactive: 0.817.

With CCAUCUUGAAUUACCUCCGTT against Tnfaip1, the z-score is inactive: -1.5. The value for GGAUGAAGAUGGAGAUCUUTT against Tfg was inactive: 0.194.
